Assay results reported in US6476019B1, “Spirocyclic ligands for sigma receptors, and libraries and methods of use thereof” (Sepracor Inc., priority 1999, dated 2002).
For some of these results: For at least one compound, name, drawing or mass did not settle the structure. Some entries share one result that the patent states for a list of compounds.

Tests used:
sigma receptors = conditions: moderate to high potency; Tam and Cook 1984; cited from earlier work
Male Wistar rats = assay: MK-801-Induced Psychosis Model; assay type: in vivo; conditions: rat, 5.0 mg/kg i.p.; MK-801 0.3 mg/kg i.p.
From the text: The non-competitive NMDA receptor antagonist MK-801 induces stereotypies and hyperactivity in rodents (1) by interacting with the NMDA receptor-associated ion channel. Phencyclidine, which also interferes with the NMDA receptor, produces psychotic effects in humans similar in many respects to schizophrenia. […] Therefore the MK-801-induced activity and stereotypies in rats may represent an appropriate animal model to test the potential efficacy of antipsychotic drugs.
Male Wistar rats (Iffa Crédo, St Germain/l'Arbresle, France), weight 250-300 g were housed 2 per cage on a 12 h/12 h light dark cycle (lights on at 7.00 a.m.) at a room temperature of 21±2° C. for a minimum of 5 days before testing. All animals had access to commercial food and tap water ad libitum.
On the day of the experiment, rats were treated with either reference drug vehicle, the reference drugs haloperidol or clozapine the test compound vehicle or test compounds. After administration, the rats were returned to their home cages for 15 minutes. […] The remaining rats treated with placebo received a second injection of vehicle. The standard injection volume was 2.0 ml/kg. […] Stereotypies, defined as wall-contacts with the snout, and locomotion, defined as turn-rounds of 180°, were assessed during 5 minute periods.

Row | Compound | Ki (sigma receptors) [µM] | MK-801-induced locomotion (Male Wistar rats) | MK-801-induced stereotypies (Male Wistar rats)
1 | CC(=O)c1ccc2c(c1)N(CCCN1CCN(CCO)CC1)c1ccccc1S2 [acetophenazine] | < 1 | – | –
2 | CN(C)CCCN1c2ccccc2Sc2ccc(Cl)cc21 [chlorpromazine] | < 1 | – | –
3 | CN1CCN(CCCN2c3ccccc3Sc3ccc(C(F)(F)F)cc32)CC1 [trifluoperazine] | < 1 | – | –
4 | OCCN1CCN(CCCN2c3ccccc3Sc3ccc(Cl)cc32)CC1 [perphenazine] | < 1 | – | –
5 | CN1CCN(C2=Nc3cc(Cl)ccc3Nc3ccccc32)CC1 [clozapine, reference compound] | – | significant reduction | significant reduction
6 | CCc1c(C)[nH]c2c1C(=O)C(CN1CCOCC1)CC2 (stereo not shown) [molindone] | < 1 | – | –
